Source: article doi:10.1101/310227
Results are given in words; binding and its absence hold for the method and conditions named. Binding seen in cells or lysates may run through a third protein. Binding can be weak; no strength is given. Where a sequence is shown, tags or fusion partners need not be part of it. Blank lines part the entries; values can stand above or below the binder they belong to.

Biological target: FimA, shaft pilin of Actynomyces oris (Actynomyces oris)

binding: binds
B1: Isopeptide-K blocker (FimA CnaB domain β-strandA mimic), Halo-tagged (peptide)
chain: MEFWGDLLIKKVDNHQQGHGVRSEDLYFQSDNTTPE

binding: binds
B2: Isopeptide-N blocker (FimA CnaA domain β-strandI1 mimic), Halo-tagged (peptide)
chain: MEFARNGAITNRAQVISDHGVRSEDLYFQSDNTTPE
